Experimental data: the supplement of paper PMC4371806
Over roughly 1,600 compounds, “plate-normalized OD600 growth (mean of duplicates)” has its median near 0.31; the lowest 2% begin near 0.23. The list shows a part of the results.

System: Escherichia coli BW25113
Assay: plate-normalized OD600 growth (mean of duplicates) (OD600 (normalized)); higher = more growth (less inhibition)
Details: 10 µM
Description: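 E. coli BW25113 in LB (100 µl, 96-well, no shaking) was exposed to 10 µM of each compound (here the ChemBridge subset of a ~30,000-member library) and grown at 37°C for 24 h or 15°C for 48 h, in duplicate. Growth was read as OD600 and the duplicate ODs were normalized across screening plates to correct plate-to-plate variation.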

Compound	plate-normalized OD600 growth (temperature: 15°C, 48 h)	plate-normalized OD600 growth (temperature: 37°C, 24 h)
CCCCOC(=O)Nc1ccc(I)cc1	0.259	0.618
Clc1ccccc1-c1cn2ccsc2n1	0.246	0.615
O=C1CCCC2=C1C(c1ccc(F)cc1)Nc1ccc3ncccc3c12 (stereo not drawn)	0.248	0.639
c1ccc(C2CCC(N3CCN(Cc4cccnc4)CC3)CC2)cc1 (stereo not drawn)	0.25	0.62
Cc1ccc(C23CC4CC(CC(C(=O)NN)(C4)C2)C3)cc1	0.239	0.607
C=CCSC1=C(C#N)C2(CCCC2)C(C#N)C(=O)N1 (stereo not drawn)	0.243	0.606
Cc1cc(-c2ccccc2)nc2cc(C(N)=O)nn12	0.247	0.614
CC(=O)Nc1cccc(NS(=O)(=O)c2ccc(Cl)cc2)c1	0.263	0.638
O=[N+]([O-])c1ccc(N2CCN(CCO)CC2)c(Cl)c1	0.25	0.61
COc1ccc(C2C(=C(O)c3ccccc3)C(=O)C(=O)N2CCCO)cc1OC (stereo not drawn)	0.243	0.609
COc1ccc(OC)c(C2C(C#N)=C(C)NC3=C2C(=O)CCC3)c1 (stereo not drawn)	0.246	0.629
COc1ccc(CNCCC2CCOC(C)(C)C2)cc1 (stereo not drawn)	0.263	0.65
Cc1ccc(-c2csc(Nc3ccc(F)cc3)n2)cc1C	0.218	0.604
O=C(NCc1ccccc1)c1ccc(Br)c(S(=O)(=O)N2CCOCC2)c1	0.248	0.607
O=C(Nc1ccc(Cl)c(Cl)c1)[C@@H]1C2C=CC(C2)[C@@H]1C(=O)O (stereo partly drawn)	0.246	0.607
O=C(Cn1cncn1)c1ccccc1Cl	0.256	0.624
O=C(COc1ccc(Br)cc1)Nc1ccc(F)cc1F	0.254	0.626
CCn1c2ccccc2c2cc(CN3CCC(O)CC3)ccc21	0.248	0.602
COc1ccc2c(c1)nc(NCCO)n2C	0.235	0.624
Brc1ccc(CN2CCN(Cc3ccc4c(c3)OCO4)CC2)s1	0.262	0.639
O=C(NCc1ccccc1)c1cccc(Br)c1	0.253	0.603
O=C(N1CCOCC1)C(O)(c1ccccc1)c1ccccc1	0.282	0.642
CCN(CC)c1ccc(/C=C(\C#N)c2nc3ccccc3s2)cc1	0.249	0.619
CCN(CC)C(=O)C1CCCN(Cc2cccc(Br)c2)C1 (stereo not drawn)	0.244	0.623
O=c1[nH]cnc2nc(N3CCOCC3)[nH]c12	0.27	0.632
CS(=O)(=O)N1CCN(c2ccc([N+](=O)[O-])c(N3CCCC3)c2)CC1	0.253	0.623
C=CCNC(=O)c1ccc(CN2CCc3ccccc3C2)cc1	0.217	0.6
COc1ccc(CN2CCCN(C)CC2)cc1Br	0.229	0.632
COc1ccc(S(=O)(=O)N2CCN(Cc3cccc(F)c3)CC2)cc1	0.245	0.614

An excerpt of these results, with bars between the fields:
Compound | plate-normalized OD600 growth (temperature: 15°C, 48 h) | plate-normalized OD600 growth (temperature: 37°C, 24 h)
COc1ccc2c(c1)nc(NCCO)n2C | 0.235 | 0.624
Brc1ccc(CN2CCN(Cc3ccc4c(c3)OCO4)CC2)s1 | 0.262 | 0.639
